Measurements as given in PubChem BioAssay AID248 (DTP/NCI, 2004).
The list shows only some results of the screen, not a fair sample: it gathers tests that were run many times, whatever their T/C, doses with no T/C, and many T/C values between a quarter and a half above the control. Further doses and runs are listed elsewhere. T/C is the treated group as % of the vehicle group. Some doses have a count of surviving animals in place of a T/C: the source holds a T/C of zero for them, seemingly a mark for toxic or unscored doses. Some doses without a T/C left all or most animals alive at the check, yet need not have been tolerated: survival well below the control is almost never listed, so the zero probably covers shortened survival too. Counts of survivors are from the toxicity check (mostly the fifth day) where no day follows; animals may have died later. Schedules are NCI's codes, taken here to give the interval after Q, in days (D) or hours (H), and the number of doses after X. Some entries were tested several times; their values stand side by side, smallest first. Some schedule codes hold Z or #, which are not explained here.

Tested on: L1210 leukemia ip in BDF1 mice, survival T/C
Experiment: NCI In Vivo Anticancer Drug Screen. Data for tumor model L1210 Leukemia (intraperitoneal) in B6D2F1 (BDF1) mice
Conditions: T/C endpoint: mean survival time, higher T/C = longer survival
[1] = dose: 200.0 mg/kg/injection, schedule: Q01DX001 (ip), vehicle: saline
[2] = dose: 400.0 mg/kg/injection, schedule: Q01DX001 (ip), vehicle: saline
[3] = dose: 400.0 mg/kg/injection, schedule: Q04DX003 (ip), vehicle: Klucel (hydroxypropylcellulose) (HPC)
[4] = dose: 400.0 mg/kg/injection, schedule: Q04DX003 (ip), vehicle: saline with Tween-80
[5] = dose: 100.0 mg/kg/injection, schedule: Q04DX003 (ip), vehicle: saline with Tween-80
[6] = dose: 200.0 mg/kg/injection, schedule: Q04DX003 (ip), vehicle: saline with Tween-80
[7] = dose: 400.0 mg/kg/injection, schedule: Q04DX003 (ip), vehicle: saline
[8] = dose: 200.0 mg/kg/injection, schedule: Q04DX003 (ip), vehicle: Klucel (hydroxypropylcellulose) (HPC)
[9] = dose: 100.0 mg/kg/injection, schedule: Q01DX001 (ip), vehicle: saline

CCN=C(c1ccc(NC(=O)c2ccc(C(=O)Nc3ccc(C(=NCC)N(CC)C(=O)OCC)cc3)cc2)cc1)N(CC)C(=O)OCC
survivor count (dose: 125.0 mg/kg/injection, schedule: Q01DX015 (ip), vehicle: methylcellulose (MC)): 0 of 6 | survivor count (dose: 250.0 mg/kg/injection, schedule: Q01DX015 (ip), vehicle: methylcellulose (MC)): 6 of 6

COc1cccc2c1[nH]c1cc3ccncc3cc12
survivor count [1]: 1 of 6 | survivor count [2]: 0 of 6 | survivor count [3]: 0 of 6

c1nc(NCC2CC2)c2[nH]cnc2n1
survivor count [2]: 0 of 6

CNc1ccc(N=Nc2ccc3ncccc3c2)cc1
survivor count (dose: 22.5 mg/kg/injection, schedule: Q01DX Z (ip), vehicle: carboxymethylcellulose (CMC)): 6 of 6

CCOC(=O)C12CCC(C1=O)C(C)(O)CC2 (centres undefined)
survivor count [4]: 1 of 6

CCCCNC(=O)Oc1ccc(C(=O)OCCC)cc1
survivor count (dose: 200.0 mg/kg/injection, schedule: Q01DX009 (ip), vehicle: other): 2 of 3 | survivor count (dose: 400.0 mg/kg/injection, schedule: Q01DX009 (ip), vehicle: saline with Tween-80): 3 of 6 and 2 of 3

CC(C)(C)OC(=O)NOc1ccc([N+](=O)[O-])cc1[N+](=O)[O-]
survivor count [5]: 3 of 6 | survivor count (dose: 150.0 mg/kg/injection, schedule: Q01DX001 (ip), vehicle: carboxymethylcellulose (CMC)): 0 of 6 | survivor count [6]: 4 of 6 | survivor count (dose: 300.0 mg/kg/injection, schedule: Q01DX001 (ip), vehicle: carboxymethylcellulose (CMC)): 0 of 6 | survivor count [4]: 0 of 6

O=S1(=O)CCC2CCCCC2C1 (centres undefined)
survivor count [5]: 4 of 6 | survivor count [6]: 0 of 6 | survivor count [4]: 0 of 6

CCCC(NC(=O)CCl)C(=O)O (centres undefined)
survivor count [7]: 2 of 6

CCNC(Cc1ccccc1)c1ccco1 (centres undefined)
survivor count (dose: 200.0 mg/kg/injection, schedule: Q01DX009 (ip), vehicle: Klucel (hydroxypropylcellulose) (HPC)): 0 of 6

O=C1CN(CCl)C(=O)CN1CCl
survivor count (dose: 200.0 mg/kg/injection, schedule: Q01DX009 (ip), vehicle: water): 2 of 6 | survivor count (dose: 400.0 mg/kg/injection, schedule: Q01DX009 (ip), vehicle: water): 0 of 6

Nc1ccc(-c2ccc(NC(=O)C(=O)O)cc2)cc1
survivor count [8]: 0 of 6 | survivor count [3]: 0 of 6

OCC#CC#CCO
survivor count (dose: 200.0 mg/kg/injection, schedule: Q04DX003 (ip), vehicle: saline): 0 of 6 | survivor count [7]: 0 of 6

C1CCC2(CC1)CCCCC2
survivor count [9]: 0 of 4 | survivor count [1]: 0 of 4 | survivor count [2]: 0 of 4

COc1ccc2nc3cc(Cl)ccc3c(NCCCCN(C)C)c2c1
survivor count (dose: 25.0 mg/kg/injection, schedule: Q04DX003 (ip), vehicle: saline): 1 of 6 | survivor count [9]: 2 of 6 | survivor count [1]: 0 of 6 | survivor count [2]: 0 of 6

Cc1ccc2nc(CCl)[nH]c2c1
survivor count [2]: 0 of 4

Nc1ncnc2c1ncn2C1OC(C2CC2)C(O)C1O (centres undefined)
survivor count (dose: 200.0 mg/kg/injection, schedule: Q01DX005 (ip), vehicle: saline): 0 of 6

[CH3][Sb]([CH3])[S]C1OC(CO)C(O)C(O)C1O (centres undefined)
survivor count (dose: 100.0 mg/kg/injection, schedule: Q04DX003 (ip), vehicle: Klucel (hydroxypropylcellulose) (HPC)): 0 of 3 | survivor count [8]: 0 of 3 | survivor count [3]: 0 of 3

Nc1ccc(Cc2ccc(N)c(Br)c2)cc1Br
survivor count (dose: 200.0 mg/kg/injection, schedule: Q01DX009 (ip), vehicle: saline): 5 of 6 | survivor count [2]: 0 of 6

Cc1c(C(N)=O)no[n+]1[O-]
survivor count (dose: 400.0 mg/kg/injection, schedule: Q04DX002 (ip), vehicle: Klucel (hydroxypropylcellulose) (HPC)): 2 of 3

OC1CC[N-]CC1.OC1CC[N-]CC1.[Cl][Pt+2]([Cl])([Cl])[Cl]
survivor count (dose: 100.0 mg/kg/injection, schedule: Q01DX009 (ip), vehicle: saline with Tween-80): 3 of 6 | survivor count [6]: 3 of 6 | survivor count [4]: 1 of 6
